Reference: patent publication US20260176636

Key:
thrombin S195A (human) = assay: structure; details: 5' dabigatran-C6 amide; 5' A(7) dA linker; crystal structure 2.2 Å, PDB 8TQS; aptamer on exosite 2, DAB in S1 pocket; purified recombinant protein; label: biotin for BLI; single-stranded DNA; variant of HD22
[1] = system: thrombin (human alpha thrombin) (human); assay: inhibition of the protein; details: purified native protein, protein details: Haematologic Technologies Inc., single-stranded DNA
factor Xa (human) = assay: inhibition of the protein; details: 5' dabigatran-C6 amide; 5' A(7) dA linker; purified native protein; protein details: Haematologic Technologies Inc.; label: biotin for BLI; single-stranded DNA; variant of HD22; dose not given here
[2] = 3' C6-dabigatran, dT linker, 3' linked conjugates similar potency to HD22-7A-DAB, values in figure, variant of HD22, dose not given here

Sequence: AAAAAAAAGTCCGTGGTAGGGCAGGTTGGGGTGACT [HD22-7A-DAB]
- binding result (thrombin S195A (human)): binds
- functional effect of the aptamer ([1]; 5' dabigatran-C6 amide, 5' A(7) dA linker, complete inhibition of fibrinogen clotting at 50 nM and of FVIII cleavage at 100 nM, label: biotin for BLI, variant of HD22): active
- functional effect of the aptamer (factor Xa (human)): not active

Sequence: AAAAAAAAGTCCGTGGTAGGGCAGGTTGGGGTGACT [HD22-7A-DAB-3'CH]
- functional effect of the aptamer ([1]; 5' dabigatran-C6, 3' cholesterol, similar potency to HD22-7A-DAB, variant of HD22-7A-DAB, dose not given here): active

Sequence: AGTCCGTGGTAGGGCAGGTTGGGGTGACTT [HD22-1T-DAB]
- functional effect of the aptamer [1, 2]: active

Sequence: AAAAAAAAGTCCGTGGTAGGGCAGGTTGGGGTGACT [HD22-7A-DAB-3'invT]
- functional effect of the aptamer ([1]; 5' dabigatran-C6, 3' inverted dT, similar potency to HD22-7A-DAB, variant of HD22-7A-DAB, dose not given here): active

Sequence: AGTCCGTGGTAGGGCAGGTTGGGGTGACTTT [HD22-2T-DAB]
- functional effect of the aptamer ([1]; 3' C6-dabigatran, dT linker, similar potency to HD22-7A-DAB, reversed by 3TAO1, variant of HD22, dose not given here): active

Sequence: GGTTGGTGTGGTTGGAAAAAAAAAAAA [HD1-12A-DAB]
- functional effect of the aptamer ([1]; 3' C6-dabigatran, dA linker, much stronger than DAB, HD1 or mixture, reversed by HD1-AO, variant of HD1, dose not given here): active

Sequence: AGTCCGTGGTAGGGCAGGTTGGGGTGACTTTT [HD22-3T-DAB]
- functional effect of the aptamer [1, 2]: active

For part of these data: No signal at the amounts used counts as a negative. For part of these data: The exact form of at least one protein or probe is not confirmed.
